The record followed here is PMC9468603.

The chains behind the UniProt entries cited, without tags or fusion partners.
UniProt Q7TPR4: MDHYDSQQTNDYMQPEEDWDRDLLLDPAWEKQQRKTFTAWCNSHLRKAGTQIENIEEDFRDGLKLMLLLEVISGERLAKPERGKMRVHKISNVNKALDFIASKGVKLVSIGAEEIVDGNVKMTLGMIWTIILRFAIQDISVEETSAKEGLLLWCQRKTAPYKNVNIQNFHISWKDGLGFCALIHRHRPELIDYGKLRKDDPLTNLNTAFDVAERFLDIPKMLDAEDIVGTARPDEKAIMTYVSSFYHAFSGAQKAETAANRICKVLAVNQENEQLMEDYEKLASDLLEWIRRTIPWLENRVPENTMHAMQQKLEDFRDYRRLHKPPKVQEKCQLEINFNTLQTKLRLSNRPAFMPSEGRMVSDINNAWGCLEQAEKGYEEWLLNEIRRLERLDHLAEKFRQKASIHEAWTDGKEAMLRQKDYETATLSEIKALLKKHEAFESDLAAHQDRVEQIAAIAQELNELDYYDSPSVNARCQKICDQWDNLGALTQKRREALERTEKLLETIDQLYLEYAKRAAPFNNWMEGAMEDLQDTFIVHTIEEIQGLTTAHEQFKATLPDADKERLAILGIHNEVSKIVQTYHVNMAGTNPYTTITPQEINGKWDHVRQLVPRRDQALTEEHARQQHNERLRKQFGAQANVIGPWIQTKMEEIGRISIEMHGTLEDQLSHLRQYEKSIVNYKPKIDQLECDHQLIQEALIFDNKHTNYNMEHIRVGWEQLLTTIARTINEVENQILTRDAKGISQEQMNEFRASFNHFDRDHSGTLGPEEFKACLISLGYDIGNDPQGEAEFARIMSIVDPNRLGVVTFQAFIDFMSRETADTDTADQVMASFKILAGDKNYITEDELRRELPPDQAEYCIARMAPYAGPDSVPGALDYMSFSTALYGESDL

Results are given in words; binding and its absence hold for the method and conditions named. Binding seen in cells or lysates may run through a third protein. A yes stands for co-enrichment or nearness to the bait. Other partners may have been found.

The target of this test is His-tagged Shp2 N-SH2 domain recombinant protein (UniProt Q06124). In words: affinity purification with mass spectrometry; FA fractions isolated from MEFs treated with or without FAK inhibitor 14 (15 μM, 90 min), harvested in 0.5% Triton-X100, 50 mM Tris-HCl pH 8.0, 150 mM NaCl, 0.1% DOC; incubated with 50 μg His-tagged N-SH2 for 20 min, Ni-beads 40 min at 4°C; SDS-PAGE, silver staining, band of about 100 kD identified by LC/MS/MS; only the target purified.

Turning to “α-actinin-4 (endogenous, mouse) (from UniProt P57780 1-912)”, the binding entry is recorded as “binds”.

Take “α-actinin-1 (endogenous, mouse) (from UniProt Q7TPR4 1-892)”: the binding result is on record as “binds”.
